From patent publication US7851493B2, “Phenyl-1,2,4-oxadiazolone derivatives with phenyl group, processes for their preparation and their use as pharmaceuticals” (Sanofi-Aventis, priority 2005, dated 2010)
Some entries share one result that the patent states for a list of compounds.

The molecules below were run against T1, human PPARalpha (Homo sapiens, UniProt Q07869) (assay: Cellular PPARalpha assay (human GAL4 luciferase reporter, stably transfected HEK cell line)). Conditions: range over the examples; units printed in the value (nM to μM).
T1 construct: amino acids S167-Y468; expressed in transfected cells; plasmid pcDNA3
T1 sequence (Q07869 167-468): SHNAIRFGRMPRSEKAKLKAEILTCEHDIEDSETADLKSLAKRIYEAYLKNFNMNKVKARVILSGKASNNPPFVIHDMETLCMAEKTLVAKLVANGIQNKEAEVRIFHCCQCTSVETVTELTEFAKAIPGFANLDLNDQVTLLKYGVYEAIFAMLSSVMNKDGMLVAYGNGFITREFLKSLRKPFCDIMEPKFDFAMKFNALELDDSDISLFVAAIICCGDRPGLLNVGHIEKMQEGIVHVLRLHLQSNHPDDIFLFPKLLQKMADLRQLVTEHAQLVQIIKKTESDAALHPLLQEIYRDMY
Type: cell-based
Experimental: Determination of EC50 Values of PPAR Agonists in the Cellular PPARalpha Assay
The potency of substances which bind to human PPARalpha and activate it in an agonistic manner is analyzed using a stably transfected HEK cell line (HEK=human embryo kidney) which is referred to here as PPARalpha reporter cell line. It contains two genetic elements, a luciferase reporter element (pdeltaM-GAL4-Luc-Zeo) and a PPARalpha fusion protein (GR-GAL4-humanPPARalpha-LBD) which mediates expression of the luciferase reporter element depending on a PPARalpha ligand. The stably and constitutively expressed fusion protein GR-GAL4-humanPPARalpha-LBD binds in the cell nucleus of the PPARalpha reporter cell line via the GAL4 protein portion to the GAL4 DNA binding motifs 5′-upstream of the luciferase reporter element which is stably integrated in the genome of the cell line. There is only weak expression of the luciferase reporter gene in the absence of a PPARalpha ligand if fatty acid-depleted fetal calf serum (cs-FCS) is used in the assay. PPARalpha ligands bind and activate the PPARalpha fusion protein and thereby stimulate the expression of the luciferase reporter gene. The luciferase which is formed can be detected by means of chemiluminescence via an appropriate substrate.
Construction of the PPARalpha Reporter Cell Line
The PPARalpha reporter cell line was prepared in two stages. Firstly, the luciferase reporter element was constructed and stably transfected into HEK cells. For this purpose, five binding sites of the yeast transcription factor GAL4 (Accession #AF264724) were cloned in 5′-upstream of a 68 bp-long minimal MMTV promoter (Accession #V01175). The minimal MMTV promoter section contains a […] and a TATA element in order to enable efficient transcription by RNA polymerase II. The cloning and sequencing of the GAL4-MMTV construct took place in analogy to the description of Sambrook J. et al. (Molecular cloning, Cold Spring Harbor Laboratory Press, 1989). Then the complete Photinus pyralis gene (Accession #15077) was cloned in 3′-downstream of the GAL4-MMTV element. After sequencing, the luciferase reporter element consisting of five GAL4 binding sites, MMTV promoter and luciferase gene was recloned into a plasmid which confers zeocin resistance in order to obtain the plasmid pdeltaM-GAL4-Luc-Zeo. This vector was transfected into HEK cells in accordance with the statements in Ausubel, F. M. et al. (Current protocols in molecular biology, Vol. 1-3, John Wiley & Sons, Inc., 1995).
In a second step, the PPARalpha fusion protein (GR-GAL4-humanPPARalpha-LBD was introduced into the stable cell clone described. For this purpose, initially the cDNA coding for the N-terminal 76 amino acids of the glucocorticoid receptor (Accession #P04150) was linked to the cDNA section coding for amino acids 1-147 of the yeast transcription factor GAL4 (Accession #P04386). The cDNA of the ligand-binding domain of the human PPARalpha receptor (amino acids S167-Y468; Accession #S74349) was cloned in at the 3′-end of this GR-GAL4 construct. The fusion construct prepared in this way (GR-GAL4-humanPPARalpha-LBD) was recloned into the plasmid pcDNA3 (Invitrogen) in order to enable constitutive expression therein by the cytomegalovirus promoter. This plasmid was linearized with a restriction endonuclease and stably transfected into the previously described cell clone containing the luciferase reporter element. The finished PPARalpha reporter cell line which contains a luciferase reporter element and constitutively expresses the PPARalpha fusion protein (GR-GAL4-human PPARalpha-LBD) was isolated by selection with zeocin (0.5 mg/ml) and G418 (0.5 mg/ml).
The activity of PPARalpha agonists is determined in a 3-day assay, which is described below: […]

| Structure (SMILES) | EC50 [nM] |
| --- | --- |
| COc1ccc(-c2nc(CN3CCCC3)c(COc3ccc(-c4noc(=O)[nH]4)c(C)c3)o2)cc1 [Example 62, 3-{4-[2-(4-Methoxy-phenyl)-4-pyrrolidin-1-ylmethyl-oxazol-5-ylmethoxy]-2-methyl-phenyl}-4H-[1,2,4]oxadiazol-5-one] | ≥ 5 |
| CCCNCc1nc(-c2ccc(C(F)(F)F)cc2)sc1COc1ccc(-c2noc(=O)[nH]2)c(C)c1 [Example 47, 3-{2-Methyl-4-[4-propylaminomethyl-2-(4-trifluoromethyl-phenyl)-thiazol-5-ylmethoxy]-phenyl}-4H-[1,2,4]oxadiazol-5-one] | ≥ 5 |
| COc1ccc(-c2nc(COc3ccc(-c4noc(=O)[nH]4)c(C)c3)c(CN3CCCCC3)o2)cc1 [Example 66, 3-{4-[2-(4-Methoxy-phenyl)-5-piperidin-1-ylmethyl-oxazol-4-ylmethoxy]-2-methyl-phenyl}-4H-[1,2,4]oxadiazol-5-one] | ≥ 5 |
| O=c1[nH]c(-c2ccc(OCc3sc(-c4ccc(C(F)(F)F)cc4)nc3CN3Cc4ccccc4C3)cc2F)no1 [Example 22, 3-{4-[4-(1,3-Dihydro-isoindol-2-ylmethyl)-2-(4-trifluoromethyl-phenyl)-thiazol-5-ylmethoxy]-2-fluoro-phenyl}-4H-[1,2,4]oxadiazol-5-one] | ≥ 5 |
| CSCCCNCc1nc(-c2ccc(C(F)(F)F)cc2)sc1COc1ccc(-c2noc(=O)[nH]2)c(F)c1 [Example 26, 3-{2-Fluoro-4-[4-[(3-methylsulfanyl-propylamino)-methyl]-2-(4-trifluoromethyl-phenyl)-thiazol-5-ylmethoxy]-phenyl}-4H-[1,2,4]oxadiazol-5-one] | ≥ 5 |
| COc1cc(OCc2sc(-c3ccc(C(F)(F)F)cc3)nc2CN2CCC(O)(O)CC2)ccc1-c1noc(=O)[nH]1 [Example 87, 3-{4-[4-(4,4-Dihydroxy-piperidin-1-ylmethyl)-2-(4-trifluoromethyl-phenyl)-thiazol-5-ylmethoxy]-2-methoxy-phenyl}-4H-1,2,4-oxadiazol-5-one] | ≥ 5 |
| COc1cc(OCc2sc(-c3ccc(C(F)(F)F)cc3)nc2CNC2CC2)ccc1-c1noc(=O)[nH]1 [Example 15, 3-{4-[4-Cyclopropylaminomethyl-2-(4-trifluoromethyl-phenyl)-thiazol-5-ylmethoxy]-2-methoxy-phenyl}-4H-[1,2,4]oxadiazol-5-one] | ≥ 5 |
| COc1cc(OCc2sc(-c3ccc(C(F)(F)F)cc3)nc2CNCCC(F)(F)F)ccc1-c1noc(=O)[nH]1 [Example 36, 3-(2-Methoxy-4-{2-(4-trifluoromethyl-phenyl)-4-[(3,3,3-trifluoro-propylamino)-methyl]-thiazol-5-ylmethoxy}-phenyl)-4H-[1,2,4]oxadiazol-5-one] | ≥ 5 |
| COc1cc(OCc2sc(-c3ccc(C(F)(F)F)cc3)nc2CNC[C@@H]2CCCO2)ccc1-c1noc(=O)[nH]1 [Example 38, 3-{2-Methoxy-4-[4-({[(S)-1-(tetrahydro-furan-2-yl)methyl]-amino}-methyl)-2-(4-trifluoromethyl-phenyl)-thiazol-5-ylmethoxy]-phenyl}-4H-[1,2,4]oxadiazol-5-one] | ≥ 5 |
| CC(C)Oc1cc(OCc2sc(-c3ccc(C(F)(F)F)cc3)nc2CN2CCC(C(F)(F)F)CC2)ccc1-c1noc(=O)[nH]1 [Example 96, 3-{2-Isopropoxy-4-[2-(4-trifluoromethyl-phenyl)-4-(4-trifluoromethyl-piperidin-1-ylmethyl)-thiazol-5-ylmethoxy]-phenyl}-4H-1,2,4-oxadiazol-5-one] | ≥ 5 |
| CCN(CC)Cc1nc(-c2ccc(C(F)(F)F)cc2)sc1COc1ccc(-c2noc(=O)[nH]2)c(OC)c1 [Example 8, 3-{4-[4-Diethylaminomethyl-2-(4-trifluoromethyl-phenyl)-thiazol-5-ylmethoxy]-2-methoxy-phenyl}-4H-[1,2,4]oxadiazol-5-one] | ≥ 5 |
| CN1CCN(Cc2nc(-c3ccc(C(F)(F)F)cc3)sc2COc2ccc(-c3noc(=O)[nH]3)c(Cl)c2)CC1 [Example 75, 3-{2-Chloro-4-[4-(4-methyl-piperazin-1-ylmethyl)-2-(4-trifluoromethyl-phenyl)-thiazol-5-ylmethoxy]-phenyl}-4H-[1,2,4]oxadiazol-5-one] | ≥ 5 |
| COc1cc(OCc2sc(-c3ccc(C(F)(F)F)cc3)nc2CNCC[S+](C)[O-])ccc1-c1noc(=O)[nH]1 (stereo not drawn) [Example 44, 3-{4-[4-[(2-Methanesulfinyl-ethylamino)-methyl]-2-(4-trifluoromethyl-phenyl)-thiazol-5-ylmethoxy]-2-methoxy-phenyl}-4H-[1,2,4]oxadiazol-5-one] | ≥ 5 |
| COc1ccc(-c2nc(CN3CCOCC3)c(COc3ccc(-c4noc(=O)[nH]4)c(C)c3)o2)cc1 [Example 63, 3-{4-[2-(4-Methoxy-phenyl)-4-morpholin-4-ylmethyl-oxazol-5-ylmethoxy]-2-methyl-phenyl}-4H-[1,2,4]oxadiazol-5-one] | ≥ 5 |
| COCCN(CCOC)Cc1oc(-c2ccc(OC)cc2)nc1COc1ccc(-c2noc(=O)[nH]2)c(C)c1 [Example 69, 3-{4-[5-{[Bis-(2-methoxy-ethyl)-amino]-methyl}-2-(4-methoxy-phenyl)-oxazol-4-ylmethoxy]-2-methyl-phenyl}-4H-[1,2,4]oxadiazol-5-one] | ≥ 5 |
| CC(=O)OCc1nc(-c2ccc(C(F)(F)F)cc2)sc1COc1ccc(-c2noc(=O)[nH]2)c(F)c1 [Example 33, Acetic acid 5-[3-fluoro-4-(5-oxo-4,5-dihydro-[1,2,4]oxadiazol-3-yl)-phenoxymethyl]-2-(4-trifluoromethyl-phenyl)-thiazol-4-ylmethyl ester] | ≥ 5 |
| COCCN(CCOC)Cc1nc(-c2ccc(C(F)(F)F)cc2)sc1COc1ccc(-c2noc(=O)[nH]2)c(Cl)c1 [Example 77, 3-{4-[4-{[Bis-(2-methoxy-ethyl)-amino]-methyl}-2-(4-trifluoromethyl-phenyl)-thiazol-5-ylmethoxy]-2-chloro-phenyl}-4H-[1,2,4]oxadiazol-5-one] | ≥ 5 |
| O=c1[nH]c(-c2ccc(OCc3sc(-c4ccc(C(F)(F)F)cc4)nc3CN3CCC(F)(F)CC3)cc2Cl)no1 [Example 80, 3-{2-Chloro-4-[4-(4,4-difluoro-piperidin-1-ylmethyl)-2-(4-trifluoromethyl-phenyl)-thiazol-5-ylmethoxy]-phenyl}-4H-[1,2,4]oxadiazol-5-one] | ≥ 5 |
| COc1cc(OCc2sc(-c3ccc(C(F)(F)F)cc3)nc2CNCC2CC2)ccc1-c1noc(=O)[nH]1 [Example 40, 3-{4-[4-[(Cyclopropylmethyl-amino)-methyl]-2-(4-trifluoromethyl-phenyl)-thiazol-5-ylmethoxy]-2-methoxy-phenyl}-4H-[1,2,4]oxadiazol-5-one] | ≥ 5 |
| COc1cc(OCc2sc(-c3ccc(C(F)(F)F)cc3)nc2CN2CCN(C)CC2)ccc1-c1noc(=O)[nH]1 [Example 5, 3-{2-Methoxy-4-[4-(4-methyl-piperazin-1-ylmethyl)-2-(4-trifluoromethyl-phenyl)-thiazol-5-ylmethoxy]-phenyl}-4H-[1,2,4]oxadiazol-5-one] | ≥ 5 |
| O=c1[nH]c(-c2ccc(OCc3sc(-c4ccc(C(F)(F)F)cc4)nc3CN3CCC(C(F)(F)F)CC3)cc2F)no1 [Example 17, 3-{2-Fluoro-4-[2-(4-trifluoromethyl-phenyl)-4-(4-trifluoromethyl-piperidin-1-ylmethyl)-thiazol-5-ylmethoxy]-phenyl}-4H-[1,2,4]oxadiazol-5-one] | ≥ 5 |
